# Measurements from PubChem BioAssay (NCATS).
# Inconclusive means that the source gave no clear call. Such entries were picked first, then a sample of the others. A potency beside an inconclusive call is a rough fit, not a confirmed value. Calls of active or inactive are those of the source. The call rests on the fitted dose curve; in most records, active means well fitted inhibition curve with a large enough effect; inconclusive means small, poorly fitted or top-dose-only effect; inactive means no such curve, though single readings can be large or run the other way.
# Biological target: Retinaldehyde dehydrogenase 3 (Homo sapiens) (UniProt P47895)
# Experiment: qHTS for Inhibitors of the Aldehyde Dehydrogenase Family (ALDH1A3) Validation screen (AID 2061312); further: nearly all actives have a fitted effect of over 45% in size; on activity change, negative = inhibition: on the % scale 0 is the no-effect control and ±100 the full control effect
# Details: ALDH1A3 enzyme inhibition qHTS validation, fluorescence; activity change, negative = inhibition: at 84.7 µM (top of the series)
# Potency means the concentration at half of the fitted maximal effect.
row,SMILES,Potency
1,O=C(Nc1ccccc1Cl)c1cnc2ccc(C3CCNCC3)cn12,inactive
2,CN(C)c1nc(NC2CCC(NCCc3ccc(Br)cc3OC(F)(F)F)CC2)nc2ccccc12 (configuration not stated),inactive
3,O=C(NCc1nc2ccccc2c(=O)n1-c1ccc(F)cc1)Nc1ccc(Cl)c(C(F)(F)F)c1,inactive
4,CCOC(=O)c1cnc2c(cnn2CC)c1NN=C(C)C,"inconclusive: 1.26 µM [inhibitor, full curve]"
5,CC(=O)N1c2ccc(-c3ccc(C(=O)O)cc3)cc2C(Nc2ccc(Cl)cc2)CC1C (configuration not stated),inactive
6,COCCc1ccc(OCC(O)CNC(C)C)cc1 (configuration not stated),inactive
7,COc1ccccc1OCCN1CC(COc2cccc3[nH]c4ccccc4c23)OCC1=O (configuration not stated),"inconclusive: 8.91 µM [inhibitor, partial curve, poor fit]"
8,Cc1ccc(O)cc1Nc1ccnc(Nc2cccc(C(N)=O)c2)n1,inactive

# Biological target: Retinal dehydrogenase 2 (Homo sapiens) (UniProt O94788)
# Experiment: qHTS for Inhibitors of the Aldehyde Dehydrogenase Family (ALDH1A2) Confirmation screens (AID 2061314); further: nearly all actives have a fitted effect of over 65% in size
# Details: ALDH1A2 enzyme inhibition qHTS confirmation; activity, negative = inhibition: at 45.9 µM (top of the series) unless noted; series mostly up to 45.9 µM
row,SMILES,Potency
1,CNC(=O)c1cc(Oc2ccc3nc(N[C@@H]4CCCC[C@H]4O)sc3c2)ccn1,"inconclusive: 10.1 µM [inhibitor, partial curve]"
2,CCOC(=O)c1cnc2c(cnn2CC)c1NN=C(C)C,"inconclusive: 12.7 µM [inhibitor, partial curve]"
3,COc1ccc(CCC(=O)c2c(O)cc(O[C@@H]3O[C@H](CO)[C@@H](O)[C@H](O)[C@H]3O[C@@H]3O[C@@H](C)[C@H](O)[C@@H](O)[C@H]3O)cc2O)cc1O,"inconclusive: 22.5 µM [inhibitor, partial curve]"

# Biological target: Retinaldehyde dehydrogenase 3 (Homo sapiens) (UniProt P47895)
# Experiment: qHTS for Inhibitors of the Aldehyde Dehydrogenase Family (ALDH1A3) Primary screen (AID 2061315);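 on activity change, negative = inhibition: plate controls were DMSO vehicle for no effect and reference inhibitor for full effect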
# Details: ALDH inhibition qHTS; activity change, negative = inhibition: at 56 µM (top of the series) unless noted
row,SMILES,Potency
1,Cc1cc(N)c2ccccc2[n+]1CCCCCCCCCC[n+]1c(C)cc(N)c2ccccc21,inactive
2,COC(=O)C1C(CC(C)=O)C=CC(O)C12Oc1cc(C)cc(O)c1C2=O (configuration not stated),inactive
3,C=CC(=O)N1CCC[C@@H](n2nc(-c3cccc(C(=O)Nc4ccc(C(C)C)c(C)c4)c3)c3c(N)ncnc32)C1,inactive
4,Cc1c2cc(c(C(=O)O)c1C)OC1OC(C(O)C(O)C1O)C(O)C(O)C1OC(O2)C(O)C(O)C1O (configuration not stated),inactive
5,Cc1[nH]nc2ccc(-c3cncc(OC[C@@H](N)Cc4ccccc4)c3)cc12,"inconclusive: 12.6 µM [inhibitor, partial curve]"
6,Cc1coc2c1C(=O)C(=O)c1c-2ccc2c1CCCC2(C)C,"inconclusive: 15.8 µM [inhibitor, partial curve, poor fit]"
7,COc1ccc(CCC(=O)c2c(O)cc(O[C@@H]3O[C@H](CO)[C@@H](O)[C@H](O)[C@H]3O[C@@H]3O[C@@H](C)[C@H](O)[C@@H](O)[C@H]3O)cc2O)cc1O,"inconclusive: 25.1 µM [inhibitor, partial curve]"
8,COc1cc2ncnc(Nc3cc(Br)c(O)c(Br)c3)c2cc1OC,"inconclusive: 2.24 µM [inhibitor, full curve, poor fit]"
9,CN(C)c1ccc(Nc2nc(N)n(C(=O)c3c(F)cccc3F)n2)cc1,active: 14.1 µM

# Biological target: Aldehyde dehydrogenase 1A1 (Homo sapiens) (UniProt P00352)
# Experiment: qHTS for Inhibitors of the Aldehyde Dehydrogenase Family (ALDH1A1) Confirmatory screens (AID 2061316); further: nearly all actives have a fitted effect of over 65% in size
# Details: ALDH inhibition qHTS; activity change, negative = inhibition: at 47.3 µM (top of the series); series mostly up to 47.3 µM
row,SMILES,Potency
1,Cc1cc(N)c2ccccc2[n+]1CCCCCCCCCC[n+]1c(C)cc(N)c2ccccc21,inactive
2,O=C(Nc1ccccc1Cl)c1cnc2ccc(C3CCNCC3)cn12,"inconclusive: 11.3 µM [inhibitor, partial curve, poor fit]"
3,CNC(=O)c1cc(Oc2ccc3nc(N[C@@H]4CCCC[C@H]4O)sc3c2)ccn1,"inconclusive: 11.3 µM [inhibitor, partial curve]"
4,CCOC(=O)c1cnc2c(cnn2CC)c1NN=C(C)C,"inconclusive: 17.9 µM [inhibitor, partial curve]"
5,COc1ccc(CCC(=O)c2c(O)cc(O[C@@H]3O[C@H](CO)[C@@H](O)[C@H](O)[C@H]3O[C@@H]3O[C@@H](C)[C@H](O)[C@@H](O)[C@H]3O)cc2O)cc1O,"inconclusive: 20.1 µM [inhibitor, partial curve, poor fit]"

# Tested on: not listed separately
# Experiment: BET inhibitor-based combinations targeting novel dependencies in MECOM-rearranged (r) AML: SET-2 cell line (AID 2202231); further: nearly all actives have a fitted effect of over 35% in size;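 on viability: plate controls were DMSO treated cells for no effect and wells without cells for full effect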
# Details: SET-2 AML cells viability, CellTiter-Glo luminescence, 48 h; viability: stronger effect = lower value, concentration not given here
# In short: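 A 48 hr incubation preceded viability reading by CellTiter-Glo, with 15 min room-temperature development. Dose series had 11 points; normalization used DMSO and empty wells; AUC was computed and mean-centered per line as Z-AUC.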
SMILES,Potency,viability
C[C@@H]1CCN(C(=O)N2CCCC2)C[C@@H]1N(C)c1ncnc2[nH]ccc12,"inconclusive: 6.61 µM [inhibitor, full curve]",
Cc1[nH]nc2ccc(-c3cncc(OC[C@@H](N)Cc4ccccc4)c3)cc12,"inconclusive: 1.32 µM [inhibitor, full curve]",
CCCN1CCN(c2ccc(C(=O)NC3(C(=O)NCC#N)CCCCC3)cc2)CC1,,inactive: 102%
COC(C)(C)CCn1nc(Nc2c(C)cccc2C)c2cnc(Nc3ccc(OCCN4CCCC4)c(F)c3)nc21,active: 18.6 µM,
CN(C[C@@H]1COCCO1)S(=O)(=O)Nc1ccc2ccc3ncc(-c4cnn(C)c4)cc3c(=O)c2c1,"inconclusive: 10.5 µM [inhibitor, partial curve]",
Cc1cc(Nc2nc(N[C@@H](C)c3ccc(F)cc3)c(C#N)cc2F)n[nH]1,"inconclusive: 0.742 µM [inhibitor, full curve]",
Nc1ccn(C2CO[C@H](CO)O2)c(=O)n1 (some centres not stated),,inactive: 113%
COC(=O)c1ccc2c(C(=Nc3ccc(N(C)C(=O)CN4CCN(C)CC4)cc3)c3ccccc3)c(O)[nH]c2c1,active: 11.8 µM,
Oc1cc(-c2nc(-c3ccccc3)[nH]c2-c2ccncc2)ccc1Cl,"inconclusive: 16.6 µM [inhibitor, partial curve]",
COc1cc2ncnc(Nc3cc(Br)c(O)c(Br)c3)c2cc1OC,"inconclusive: 26.3 µM [inhibitor, partial curve]",
COc1ccc(-c2cc(C(O)C3CCCCN3)c3ccccc3n2)cc1 (configuration not stated),active: 14.8 µM,
Cn1ncc(Cl)c1-c1cc(C(=O)NC(CN)Cc2ccc(F)c(F)c2)oc1Cl (configuration not stated),"inconclusive: 26.3 µM [inhibitor, single point]",

# Three records picked at random from the list so far:
SMILES,Potency,viability
Cc1cc(Nc2nc(N[C@@H](C)c3ccc(F)cc3)c(C#N)cc2F)n[nH]1,"inconclusive: 0.742 µM [inhibitor, full curve]",
CN(C[C@@H]1COCCO1)S(=O)(=O)Nc1ccc2ccc3ncc(-c4cnn(C)c4)cc3c(=O)c2c1,"inconclusive: 10.5 µM [inhibitor, partial curve]",
Nc1ccn(C2CO[C@H](CO)O2)c(=O)n1 (some centres not stated),,inactive: 113%
